This is one part of the list.
Each sequence was assayed against OsWRKY34 (Oryza sativa, UniProt Q0JBA9 1-250) (assay: protein-binding microarray (RPBM); PBS, 2% BSA, 51.3 ng/ul salmon testes DNA, 50 uM zinc acetate, 200 nM TF, 25 C, 1 h; high values mean tight binding). Details: protein: recombinant; tags: N-terminal polyhistidine and DsRed monomer fusion (pET32a); label: CyDye5-dUTP incorporated in the synthesized complementary strand; 3' TTTTT single-stranded linker to array surface; dsDNA, one strand shown.
Procedure, shortened: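 Binding signal here means per-feature fluorescence intensity in arbitrary units. The values were read on an Axon 4000B scanner after a custom Agilent array, double-stranded by primer extension with Cy5-dUTP, was incubated with 200 nM protein at 25 °C for 1 h in PBS with 2% BSA, salmon testes DNA and 50 µM zinc acetate, then washed. The proteins were transcription factors with an N-terminal polyhistidine tag and DsRed, expressed in E. coli BL21-CodonPlus and purified on Ni–NTA.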

Amino acid sequences for entries named in this document (tags omitted).
UniProt Q0JBA9, entry or part of it: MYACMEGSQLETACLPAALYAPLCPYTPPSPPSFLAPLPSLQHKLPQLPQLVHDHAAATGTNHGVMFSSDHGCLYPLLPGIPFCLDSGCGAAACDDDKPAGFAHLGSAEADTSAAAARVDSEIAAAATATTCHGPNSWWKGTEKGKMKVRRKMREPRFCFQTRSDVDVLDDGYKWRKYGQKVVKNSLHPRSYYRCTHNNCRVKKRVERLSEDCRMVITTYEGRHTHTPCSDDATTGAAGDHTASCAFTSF

Row | Sequence | binding signal
1 | TCATTCTCCGACATCTATCGTCGCCGTCACCAACATCCTACGGAGTCACCTAGTGCAG | 8170 fluorescence intensity (a.u.)
2 | CTATCCTGGTTGTCTGCCCTATGAAACCACTCTCTACAGTCGGAGTCACCTAGTGCAG | 8830 fluorescence intensity (a.u.)
3 | GCTTAATAACATTCTATCTATACCTGTTCTTTTCTTTATGCGGAGTCACCTAGTGCAG | 8420 fluorescence intensity (a.u.)
4 | ACAATGAACACCTGCACCTACCATGCACTAGTCACTTCATCGGAGTCACCTAGTGCAG | 8880 fluorescence intensity (a.u.)
5 | TTTTTGCCTAGTTGGCAAGCCTCTTCGTTCGACCGCTAGACGGAGTCACCTAGTGCAG | 9820 fluorescence intensity (a.u.)
6 | GAGGGGTCGAGGAGGCGTAGTAGTTCAGTTTGGCTCTTTCCGGAGTCACCTAGTGCAG | 8890 fluorescence intensity (a.u.)
7 | TTCCTTTATTCCTTTTTTTTCTTCTCTCGCGCTCGATTCGCGGAGTCACCTAGTGCAG | 8800 fluorescence intensity (a.u.)
8 | GACTTTGCCATGCTTCACCTGGTTATCTCCAGATTCACATCGGAGTCACCTAGTGCAG | 9130 fluorescence intensity (a.u.)
9 | GCTTGGCTACCAGGGCCACTCTTTTCGTTACCATTTGCATCGGAGTCACCTAGTGCAG | 10700 fluorescence intensity (a.u.)
10 | CGCTGTCGACCTCCCCACCTCCTCCTTCGCACGTTCTCGCCGGAGTCACCTAGTGCAG | 9840 fluorescence intensity (a.u.)
11 | TGGACTTATTTTGGTCGGATTTGAGGTGTTTATGTAATCACGGAGTCACCTAGTGCAG | 9160 fluorescence intensity (a.u.)
12 | AGGGGTTTTTCGGCTAGCTTCACAAGATTGTGGGTTAGCTCGGAGTCACCTAGTGCAG | 8650 fluorescence intensity (a.u.)
13 | TACCCCGGCGCGATCTTGACCACGTTCTTCCACCCCTTCTCGGAGTCACCTAGTGCAG | 9200 fluorescence intensity (a.u.)
14 | GCAGCGCCGTTCCCCTCTCCTCGCCCCGCCATGCCGCTCACGGAGTCACCTAGTGCAG | 9050 fluorescence intensity (a.u.)
15 | ATTCAAGGTTGGATGGTTTTCTTTTTTTACTCTAAATTTCCGGAGTCACCTAGTGCAG | 12000 fluorescence intensity (a.u.)
16 | CTGTCTCCGTCTCTTTTACCTCAGTCTCGCGTATATCCTACGGAGTCACCTAGTGCAG | 9160 fluorescence intensity (a.u.)
17 | TTTGTGCTAATATTTTTTCTACTGTTATTTTTTATACTTCCGGAGTCACCTAGTGCAG | 10600 fluorescence intensity (a.u.)
18 | TTGTGAGGTTAATCCGTGGCCATTTTGACAGCTTGAGTTTCGGAGTCACCTAGTGCAG | 9210 fluorescence intensity (a.u.)
19 | TTACACACAGTATTCAGTCGCGTTAGTCTCCTTCGAATATCGGAGTCACCTAGTGCAG | 10800 fluorescence intensity (a.u.)
20 | CCCGGCCGCTCTCTCCGGGTGGGGTGGTGGGTGGCAAGGGCGGAGTCACCTAGTGCAG | 21100 fluorescence intensity (a.u.)
21 | TTCAGAGTATTGTGATCCTTAAATCGAACCGTTGACTCTACGGAGTCACCTAGTGCAG | 9490 fluorescence intensity (a.u.)
22 | GTCGAGCGGGCGAACATGATCTCGCGGGAGGGTGGGGTTGCGGAGTCACCTAGTGCAG | 13500 fluorescence intensity (a.u.)
23 | AGCTAGCCCACTACACCTCCTACACCCTCACCATCCAATACGGAGTCACCTAGTGCAG | 9000 fluorescence intensity (a.u.)
24 | ATGGGCAAGACGGCTCCTCTGTTTCTCTCCTACCTCCTCTCGGAGTCACCTAGTGCAG | 11000 fluorescence intensity (a.u.)
25 | GCCTGGTCGCTCCGCGCCTCTCTCCCCGCCCGCATCCTCGCGGAGTCACCTAGTGCAG | 10800 fluorescence intensity (a.u.)
26 | ATCCAGGCAAGGGTGGGCGTGATGGAGTTTGGATGGGCCCCGGAGTCACCTAGTGCAG | 8850 fluorescence intensity (a.u.)
27 | TCCATCGATTTGTTTTCTCTCTCCTGTCAGTTTTTTGCTACGGAGTCACCTAGTGCAG | 10900 fluorescence intensity (a.u.)

Row | Sequence | binding signal
28 | CTGGTGGTGTAGTATATTAGCGTCCTTGCCCTGGCCTTTGCGGAGTCACCTAGTGCAG | 9110 fluorescence intensity (a.u.)
29 | CATCAAACAGCTTTCTCTGCTAACACCCTTAGATCTATTCCGGAGTCACCTAGTGCAG | 11200 fluorescence intensity (a.u.)
30 | CTCCCCGGCCTCTCCACCCACCCCTCGATCTCTCGCTCGCCGGAGTCACCTAGTGCAG | 8600 fluorescence intensity (a.u.)
31 | TCTCTCTCTCGTCGTCTCGCGTCTCTTCTCTCAACCGCGACGGAGTCACCTAGTGCAG | 13800 fluorescence intensity (a.u.)
32 | TCAACACTGGCCTCTTTTTCACCTCGCAGCCTCGCACCGCCGGAGTCACCTAGTGCAG | 11800 fluorescence intensity (a.u.)
33 | ACCCATTACAACCCTGTAGTACATGCCACACCGTTTGACACGGAGTCACCTAGTGCAG | 10800 fluorescence intensity (a.u.)
34 | AGGGGTGTAACAAGGTGCTATTCTCTGCATTGCTAGAATACGGAGTCACCTAGTGCAG | 8510 fluorescence intensity (a.u.)
35 | ACTTTCACAAGGGTGTGTTTTTTGCGTTAAAATTGAAAGTCGGAGTCACCTAGTGCAG | 8870 fluorescence intensity (a.u.)
36 | TGGTGACATAAACTTGGAGTACACTCTTTGGCCATTAATTCGGAGTCACCTAGTGCAG | 9610 fluorescence intensity (a.u.)
37 | GGGAGAGAAGAATCTGTAGTTGGGAGGAAATTGAGTTTTGCGGAGTCACCTAGTGCAG | 10600 fluorescence intensity (a.u.)
38 | AATTTTACCCGTGGGCTTGTCCGCCCAAGACCCGTAGACACGGAGTCACCTAGTGCAG | 9780 fluorescence intensity (a.u.)
39 | CGCTTCCTCGCCGCGCGCGCGCCCGCCATCTCCTCGCCTCCGGAGTCACCTAGTGCAG | 9350 fluorescence intensity (a.u.)
40 | CAAACCTTCGCGCCGCCCATTTTTCCACCTCGTCGTCCTTCGGAGTCACCTAGTGCAG | 13900 fluorescence intensity (a.u.)
41 | TCTGGAGTGGATCTTTGTAATAATTGGTTGTAGTTCTTTTCGGAGTCACCTAGTGCAG | 11400 fluorescence intensity (a.u.)
42 | TATTTGACTTCCGGCTTTTGTTTCCTTGATACTTTACTCTCGGAGTCACCTAGTGCAG | 9780 fluorescence intensity (a.u.)
43 | TCCGACGTGACGGGTTAGGTCAAAGCTTGTGTGGGGCTGGCGGAGTCACCTAGTGCAG | 8340 fluorescence intensity (a.u.)
44 | TCTTTAGTTCCCAATACGACTATTTAGTTTCCCTATGCACCGGAGTCACCTAGTGCAG | 8400 fluorescence intensity (a.u.)
45 | TGTTTGACCAATTTAGTGTAGTGTTTTGTTCTGGTCACAACGGAGTCACCTAGTGCAG | 12800 fluorescence intensity (a.u.)
46 | CGCTCCGTACTCCATCTCATCCCCGGCCGCCACTGCCGACCGGAGTCACCTAGTGCAG | 9140 fluorescence intensity (a.u.)
47 | TTAGGACCATGTCACTGCCGTCACGTTTTCCATCCATATCCGGAGTCACCTAGTGCAG | 8130 fluorescence intensity (a.u.)
48 | CCCACATTTTTTCTTCTCACTTATATGTGGGTCCCATAATCGGAGTCACCTAGTGCAG | 8640 fluorescence intensity (a.u.)
49 | TGACTGGGTTTTTCGAATATGTTATTTGCCTGATGCAAACCGGAGTCACCTAGTGCAG | 8960 fluorescence intensity (a.u.)
50 | CGTGCTGCTCCGGCAATTCTCCCTCTACGTCGTTCTCGCGCGGAGTCACCTAGTGCAG | 10200 fluorescence intensity (a.u.)
51 | TGTATCGCTCCGTTTTCCGTGTTTAACTGTTCACGCTGCGCGGAGTCACCTAGTGCAG | 9220 fluorescence intensity (a.u.)
52 | AATTTACGGTCAAACTTTGCCCAGCATCTTCATTTTTAGCCGGAGTCACCTAGTGCAG | 8560 fluorescence intensity (a.u.)
53 | CCCATTTAAACGGTCATTGCTTAATTTTCTTGTAAGTTTTCGGAGTCACCTAGTGCAG | 10600 fluorescence intensity (a.u.)
54 | AGACTTCCACCTCACCCCTACCCCGACCGTGCACCAACCCCGGAGTCACCTAGTGCAG | 10700 fluorescence intensity (a.u.)

Part of the list above, tab-delimited.
Row	Sequence	binding signal
31	TCTCTCTCTCGTCGTCTCGCGTCTCTTCTCTCAACCGCGACGGAGTCACCTAGTGCAG	13800 fluorescence intensity (a.u.)
33	ACCCATTACAACCCTGTAGTACATGCCACACCGTTTGACACGGAGTCACCTAGTGCAG	10800 fluorescence intensity (a.u.)
54	AGACTTCCACCTCACCCCTACCCCGACCGTGCACCAACCCCGGAGTCACCTAGTGCAG	10700 fluorescence intensity (a.u.)
